Among the data in patent US20180073039A1 (SINAI HEALTH SYSTEM, published 2018) are binding values, retold here.

Sequences of proteins named here, by UniProt entry; tags and fusion partners are left off. A change or cut given only in a name is not applied to a line headed by its entry.
UniProt P51784: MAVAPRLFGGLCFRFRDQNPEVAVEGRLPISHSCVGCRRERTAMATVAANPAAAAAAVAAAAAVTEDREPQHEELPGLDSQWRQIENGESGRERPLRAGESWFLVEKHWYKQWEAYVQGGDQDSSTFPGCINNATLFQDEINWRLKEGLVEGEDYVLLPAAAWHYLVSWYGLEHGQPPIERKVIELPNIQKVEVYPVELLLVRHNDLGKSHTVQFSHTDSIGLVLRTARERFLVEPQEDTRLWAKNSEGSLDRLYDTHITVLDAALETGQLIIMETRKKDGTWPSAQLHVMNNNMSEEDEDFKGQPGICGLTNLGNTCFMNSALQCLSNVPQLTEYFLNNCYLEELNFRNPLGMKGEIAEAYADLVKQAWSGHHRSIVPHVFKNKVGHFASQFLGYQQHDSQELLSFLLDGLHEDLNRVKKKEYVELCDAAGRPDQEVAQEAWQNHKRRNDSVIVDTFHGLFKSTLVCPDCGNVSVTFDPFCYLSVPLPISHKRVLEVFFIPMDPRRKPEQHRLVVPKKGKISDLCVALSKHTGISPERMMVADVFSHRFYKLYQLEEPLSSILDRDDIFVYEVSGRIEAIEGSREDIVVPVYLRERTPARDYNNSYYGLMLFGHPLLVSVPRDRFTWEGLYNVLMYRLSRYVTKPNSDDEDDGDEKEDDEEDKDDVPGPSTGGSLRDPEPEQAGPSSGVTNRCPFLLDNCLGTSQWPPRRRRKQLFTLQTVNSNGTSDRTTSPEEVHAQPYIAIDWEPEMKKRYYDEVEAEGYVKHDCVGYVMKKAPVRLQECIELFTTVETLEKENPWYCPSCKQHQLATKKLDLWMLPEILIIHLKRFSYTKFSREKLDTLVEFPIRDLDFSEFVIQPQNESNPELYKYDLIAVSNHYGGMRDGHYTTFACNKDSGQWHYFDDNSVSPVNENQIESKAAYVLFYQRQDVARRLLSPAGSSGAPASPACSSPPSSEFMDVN

The target in experiment [1] is T1, DCAF10 (DDB1- and CUL4-associated factor 10) (human) (UniProt Q5QP82).
T1 sequence: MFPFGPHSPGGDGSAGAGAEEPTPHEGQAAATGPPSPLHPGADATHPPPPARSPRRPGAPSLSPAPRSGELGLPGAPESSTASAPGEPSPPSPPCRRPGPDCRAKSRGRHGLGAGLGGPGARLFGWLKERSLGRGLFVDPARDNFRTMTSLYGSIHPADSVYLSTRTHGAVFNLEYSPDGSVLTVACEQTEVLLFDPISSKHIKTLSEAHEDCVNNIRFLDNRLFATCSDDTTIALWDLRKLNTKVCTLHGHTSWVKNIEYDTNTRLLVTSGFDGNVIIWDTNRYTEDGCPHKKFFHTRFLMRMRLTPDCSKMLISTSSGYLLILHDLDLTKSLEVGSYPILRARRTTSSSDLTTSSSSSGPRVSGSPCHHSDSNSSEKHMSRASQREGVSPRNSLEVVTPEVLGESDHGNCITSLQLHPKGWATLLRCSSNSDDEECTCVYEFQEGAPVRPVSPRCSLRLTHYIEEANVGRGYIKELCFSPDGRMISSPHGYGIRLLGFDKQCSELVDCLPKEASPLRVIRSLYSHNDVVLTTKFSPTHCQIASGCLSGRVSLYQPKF
Description: Flag immunoprecipitation from HEK293 cell extracts, immunoblot with DCAF10 antibody.

Experiment [2] has as its target T1, DCAF10 (DDB1- and CUL4-associated factor 10) (human). Description: Flag-USP11 immunoprecipitation from 293 Flp-IN/T-Rex extracts, immunoblot.
In experiment [3] the target is T2, PALB2 (partner and localizer of BRCA2) (human) (UniProt Q86YC2).
T2 sequence: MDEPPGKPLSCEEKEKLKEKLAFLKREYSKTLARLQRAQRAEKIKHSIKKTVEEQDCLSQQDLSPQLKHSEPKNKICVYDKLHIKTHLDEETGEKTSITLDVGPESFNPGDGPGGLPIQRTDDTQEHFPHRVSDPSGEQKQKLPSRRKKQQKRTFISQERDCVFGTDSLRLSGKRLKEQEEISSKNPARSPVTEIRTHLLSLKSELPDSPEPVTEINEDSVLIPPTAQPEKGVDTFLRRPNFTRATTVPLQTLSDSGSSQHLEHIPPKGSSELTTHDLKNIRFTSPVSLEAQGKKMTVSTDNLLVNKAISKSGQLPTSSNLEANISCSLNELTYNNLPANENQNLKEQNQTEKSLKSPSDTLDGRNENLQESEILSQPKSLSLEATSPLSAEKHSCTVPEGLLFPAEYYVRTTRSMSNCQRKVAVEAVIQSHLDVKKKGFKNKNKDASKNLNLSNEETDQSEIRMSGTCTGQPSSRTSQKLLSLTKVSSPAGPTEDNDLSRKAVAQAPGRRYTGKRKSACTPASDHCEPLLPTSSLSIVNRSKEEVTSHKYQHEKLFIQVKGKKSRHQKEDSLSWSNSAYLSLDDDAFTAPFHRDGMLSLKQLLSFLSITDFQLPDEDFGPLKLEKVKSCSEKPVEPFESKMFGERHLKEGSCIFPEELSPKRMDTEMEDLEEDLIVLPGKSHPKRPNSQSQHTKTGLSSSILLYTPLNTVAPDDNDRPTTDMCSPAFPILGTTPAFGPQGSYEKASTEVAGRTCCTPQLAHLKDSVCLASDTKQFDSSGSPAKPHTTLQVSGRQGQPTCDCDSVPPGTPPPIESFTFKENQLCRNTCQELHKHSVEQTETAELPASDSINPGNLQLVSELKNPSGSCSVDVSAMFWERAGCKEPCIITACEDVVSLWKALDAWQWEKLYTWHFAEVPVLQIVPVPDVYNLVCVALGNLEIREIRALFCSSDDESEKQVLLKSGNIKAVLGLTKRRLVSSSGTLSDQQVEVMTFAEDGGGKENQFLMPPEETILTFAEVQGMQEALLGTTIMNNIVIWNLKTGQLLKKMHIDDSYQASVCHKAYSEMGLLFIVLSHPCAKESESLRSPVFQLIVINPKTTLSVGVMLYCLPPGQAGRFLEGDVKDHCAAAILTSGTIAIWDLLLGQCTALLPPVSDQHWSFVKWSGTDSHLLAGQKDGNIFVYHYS
Description: PALB2 immunoprecipitation from 293T extracts synchronized in G1 or S, immunoblot.

The target of experiment [4] is T2, PALB2 (partner and localizer of BRCA2) (human). The experiment can be described thus: USP11 immunoprecipitation from 293T extracts with or without camptothecin, immunoblot.

Results are given in words; binding and its absence hold for the method and conditions named. Some entries that bind do so weakly or less than the wild type.

On to “Flag-tagged USP11 (from UniProt P51784 1-963) (enzyme)”, for which the binding entry in experiment [1] and in experiment [2] was “binds” in each case.

As to “USP11 (ubiquitin carboxyl-terminal hydrolase 11) (from UniProt P51784 1-963) (enzyme)”, the binding result in experiment [3] and in experiment [4] was “binds” each time.
